# Test results published in publication PMC8392785.
# These are yes or no findings as the source states them, for the method shown.
# Biological target: Erwinia chrysanthemi 3937 pectin methylesterase (Erwinia chrysanthemi 3937) (UniProt P0C1A9)
# Assay: SEC; 24 mL Superdex75 HR10/30; [PemA] = 50 µM (1.85 mg/mL); check of size homogeneity of the purified enzyme; both purified
binder,measurement,value
"Erwinia chrysanthemi 3937 pectin methylesterase (enzyme, UniProt P0C1A9 25-366) ATTYNAVVSKSSSDGKTFKTIADAIASAPAGSTPFVILIKNGVYNERLTITRNNLHLKGESRNGAVIAAATAAGTLKSDGSKWGTAGSSTITISAKDFSAQSLTIRNDFDFPANQAKSDSDSSKIKDTQAVALYVTKSGDRAYFKDVSLVGYQDTLYVSGGRSFFSDCRISGTVDFIFGDGTALFNNCDLVSRYRADVKSGNVSGYLTAPSTNINQKYGLVITNSRVIRESDSVPAKSYGLGRPWHPTTTFSDGRYADPNAIGQTVFLNTSMDNHIYGWDKMSGKDKNGNTIWFNPEDSRFFEYKSYGAGATVSKDRRQLTDAQAAEYTQSKVLGDWTPTLP",binding,no binding (tested: 50 µM)
